Test results: paper PMC4213368, “Elucidation of a protein-protein interaction network involved in Corynebacterium glutamicum cell wall biosynthesis as determined by bacterial two-hybrid analysis” (Glycoconjugate Journal, 2014)
No constants are given. Whether binding was seen depends on the method and setting. For part of these data: A result given as binding can be weak or reduced; the word gives no strength.

T1: AftA (Corynebacterium glutamicum ATCC 13032) (UniProt Q8NTW4)
T1 sequence: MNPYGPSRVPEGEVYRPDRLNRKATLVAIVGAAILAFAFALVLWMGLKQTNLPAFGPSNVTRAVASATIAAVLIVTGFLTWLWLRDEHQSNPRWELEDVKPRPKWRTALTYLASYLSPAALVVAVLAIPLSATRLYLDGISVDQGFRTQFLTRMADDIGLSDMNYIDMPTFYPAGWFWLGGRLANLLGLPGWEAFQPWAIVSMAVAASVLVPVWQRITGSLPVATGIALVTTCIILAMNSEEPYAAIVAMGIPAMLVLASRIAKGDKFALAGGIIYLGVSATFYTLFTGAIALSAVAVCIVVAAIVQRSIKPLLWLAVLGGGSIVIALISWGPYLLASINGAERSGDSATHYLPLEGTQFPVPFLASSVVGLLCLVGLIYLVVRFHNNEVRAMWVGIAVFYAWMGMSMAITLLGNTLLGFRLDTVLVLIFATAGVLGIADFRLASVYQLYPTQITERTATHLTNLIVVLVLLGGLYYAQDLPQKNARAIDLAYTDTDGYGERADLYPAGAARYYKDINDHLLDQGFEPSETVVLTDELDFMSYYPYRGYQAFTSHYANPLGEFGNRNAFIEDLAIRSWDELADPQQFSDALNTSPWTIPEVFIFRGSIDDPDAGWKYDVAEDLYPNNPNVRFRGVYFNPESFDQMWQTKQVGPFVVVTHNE

T2: AftB (Corynebacterium glutamicum ATCC 13032) (UniProt Q8NLR0)
T2 sequence: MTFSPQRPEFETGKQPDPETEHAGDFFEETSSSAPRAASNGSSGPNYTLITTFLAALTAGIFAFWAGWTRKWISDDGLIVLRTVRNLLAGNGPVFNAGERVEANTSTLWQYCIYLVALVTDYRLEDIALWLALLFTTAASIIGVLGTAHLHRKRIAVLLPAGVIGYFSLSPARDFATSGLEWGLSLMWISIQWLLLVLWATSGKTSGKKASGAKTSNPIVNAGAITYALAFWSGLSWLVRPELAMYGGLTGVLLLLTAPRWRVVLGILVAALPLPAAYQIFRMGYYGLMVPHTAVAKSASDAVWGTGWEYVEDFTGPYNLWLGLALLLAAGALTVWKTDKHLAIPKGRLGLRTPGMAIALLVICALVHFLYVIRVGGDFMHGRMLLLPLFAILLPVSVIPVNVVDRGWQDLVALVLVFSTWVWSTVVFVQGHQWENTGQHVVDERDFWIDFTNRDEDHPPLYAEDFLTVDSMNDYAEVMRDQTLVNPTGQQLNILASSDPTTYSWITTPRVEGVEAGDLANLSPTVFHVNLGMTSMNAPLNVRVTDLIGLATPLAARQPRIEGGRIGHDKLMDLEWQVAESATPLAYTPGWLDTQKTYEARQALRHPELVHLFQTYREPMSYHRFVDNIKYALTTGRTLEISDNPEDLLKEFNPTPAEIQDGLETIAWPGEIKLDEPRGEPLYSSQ

T3: AftC (Corynebacterium glutamicum ATCC 13032) (UniProt Q8NPB7)
T3 sequence: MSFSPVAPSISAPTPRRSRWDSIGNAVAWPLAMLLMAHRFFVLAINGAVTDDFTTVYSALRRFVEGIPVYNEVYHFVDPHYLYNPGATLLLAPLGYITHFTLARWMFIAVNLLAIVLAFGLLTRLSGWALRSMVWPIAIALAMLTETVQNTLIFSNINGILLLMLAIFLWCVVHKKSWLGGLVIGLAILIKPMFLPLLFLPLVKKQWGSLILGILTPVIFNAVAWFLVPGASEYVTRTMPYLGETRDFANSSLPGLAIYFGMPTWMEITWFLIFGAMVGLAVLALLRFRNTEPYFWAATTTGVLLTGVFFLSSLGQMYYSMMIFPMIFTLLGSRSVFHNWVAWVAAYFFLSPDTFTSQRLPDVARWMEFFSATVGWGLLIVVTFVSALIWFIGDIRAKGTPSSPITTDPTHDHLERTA


What was measured:
Experiment in all cases: two-hybrid; bacterial adenylate cyclase two-hybrid (BACTH) in E. coli cya BTH101; T25 and T18 fusions at N- or C-terminus co-expressed; co-transformants spotted on LB/X-gal, MacConkey/maltose and M63 plates with 0.5 mM IPTG, colour read after 48 h at 30 °C; 577 pairs screened; results as summarised in Table 2
[1] = target: T1, AftA (Corynebacterium glutamicum ATCC 13032)
[2] = target: T2, AftB (Corynebacterium glutamicum ATCC 13032)
[3] = target: T3, AftC (Corynebacterium glutamicum ATCC 13032)
[4] = target: AftD (Corynebacterium glutamicum ATCC 13032)
[5] = target: DprE1 (Corynebacterium glutamicum ATCC 13032)
[6] = target: DprE2 (Corynebacterium glutamicum ATCC 13032)
[7] = target: Emb (Corynebacterium glutamicum ATCC 13032)

| binding [1] | binding [2] | binding [3] | binding [4] | binding [5] | binding [6] | binding [7] | Molecule |
| --- | --- | --- | --- | --- | --- | --- | --- |
| no binding | binds | no binding | – | – | – | – | GlfT1 (Corynebacterium glutamicum ATCC 13032) (enzyme) |
| no binding | no binding | no binding | – | – | – | – | GlfT2 (Corynebacterium glutamicum ATCC 13032) (enzyme) |
| no binding | binds | binds | – | – | – | – | WecA (Corynebacterium glutamicum ATCC 13032) (enzyme) |
| – | – | – | no binding | no binding | binds | binds | AftA (enzyme, Corynebacterium glutamicum ATCC 13032, UniProt Q8NTW4 1-661, looked up, AftA, arabinofuranosyltransferase, transmembrane, Corynebacterium glutamicum ATCC 13032; gene amplified from genomic DNA; One molecule for all four fusion forms; also called arabinofuranosyltransferase AftA; AftA-T25^N; source: E. coli BTH101, bacterial two-hybrid (BACTH) fusion; not shown: T25 or T18 fragment of Bordetella pertussis adenylate cyclase, N-terminal or C-terminal (each tested), kept) MNPYGPSRVPEGEVYRPDRLNRKATLVAIVGAAILAFAFALVLWMGLKQTNLPAFGPSNVTRAVASATIAAVLIVTGFLTWLWLRDEHQSNPRWELEDVKPRPKWRTALTYLASYLSPAALVVAVLAIPLSATRLYLDGISVDQGFRTQFLTRMADDIGLSDMNYIDMPTFYPAGWFWLGGRLANLLGLPGWEAFQPWAIVSMAVAASVLVPVWQRITGSLPVATGIALVTTCIILAMNSEEPYAAIVAMGIPAMLVLASRIAKGDKFALAGGIIYLGVSATFYTLFTGAIALSAVAVCIVVAAIVQRSIKPLLWLAVLGGGSIVIALISWGPYLLASINGAERSGDSATHYLPLEGTQFPVPFLASSVVGLLCLVGLIYLVVRFHNNEVRAMWVGIAVFYAWMGMSMAITLLGNTLLGFRLDTVLVLIFATAGVLGIADFRLASVYQLYPTQITERTATHLTNLIVVLVLLGGLYYAQDLPQKNARAIDLAYTDTDGYGERADLYPAGAARYYKDINDHLLDQGFEPSETVVLTDELDFMSYYPYRGYQAFTSHYANPLGEFGNRNAFIEDLAIRSWDELADPQQFSDALNTSPWTIPEVFIFRGSIDDPDAGWKYDVAEDLYPNNPNVRFRGVYFNPESFDQMWQTKQVGPFVVVTHNE |

The next lines start with the molecule.

| Molecule | binding [1] | binding [2] | binding [3] | binding [4] | binding [5] | binding [6] | binding [7] |
| --- | --- | --- | --- | --- | --- | --- | --- |
| UbiA (Corynebacterium glutamicum ATCC 13032) (enzyme) | binds | binds | binds | – | – | – | – |
| WbbL (Corynebacterium glutamicum ATCC 13032) (enzyme) | no binding | no binding | no binding | – | – | – | – |
| AftB (enzyme, Corynebacterium glutamicum ATCC 13032, UniProt Q8NLR0 1-686, looked up, AftB, arabinofuranosyltransferase, transmembrane, Corynebacterium glutamicum ATCC 13032; gene amplified from genomic DNA; One molecule for all four fusion forms; also called arabinofuranosyltransferase AftB; AftB-T25^N; source: E. coli BTH101, bacterial two-hybrid (BACTH) fusion; not shown: T25 or T18 fragment of Bordetella pertussis adenylate cyclase, N-terminal or C-terminal (each tested), kept) MTFSPQRPEFETGKQPDPETEHAGDFFEETSSSAPRAASNGSSGPNYTLITTFLAALTAGIFAFWAGWTRKWISDDGLIVLRTVRNLLAGNGPVFNAGERVEANTSTLWQYCIYLVALVTDYRLEDIALWLALLFTTAASIIGVLGTAHLHRKRIAVLLPAGVIGYFSLSPARDFATSGLEWGLSLMWISIQWLLLVLWATSGKTSGKKASGAKTSNPIVNAGAITYALAFWSGLSWLVRPELAMYGGLTGVLLLLTAPRWRVVLGILVAALPLPAAYQIFRMGYYGLMVPHTAVAKSASDAVWGTGWEYVEDFTGPYNLWLGLALLLAAGALTVWKTDKHLAIPKGRLGLRTPGMAIALLVICALVHFLYVIRVGGDFMHGRMLLLPLFAILLPVSVIPVNVVDRGWQDLVALVLVFSTWVWSTVVFVQGHQWENTGQHVVDERDFWIDFTNRDEDHPPLYAEDFLTVDSMNDYAEVMRDQTLVNPTGQQLNILASSDPTTYSWITTPRVEGVEAGDLANLSPTVFHVNLGMTSMNAPLNVRVTDLIGLATPLAARQPRIEGGRIGHDKLMDLEWQVAESATPLAYTPGWLDTQKTYEARQALRHPELVHLFQTYREPMSYHRFVDNIKYALTTGRTLEISDNPEDLLKEFNPTPAEIQDGLETIAWPGEIKLDEPRGEPLYSSQ | – | – | – | no binding | no binding | binds | binds |
| AftC (enzyme, Corynebacterium glutamicum ATCC 13032, UniProt Q8NPB7 1-418, looked up, AftC, arabinofuranosyltransferase, transmembrane, Corynebacterium glutamicum ATCC 13032; gene amplified from genomic DNA; One molecule for all four fusion forms; also called arabinofuranosyltransferase AftC; AftC-T25^C; source: E. coli BTH101, bacterial two-hybrid (BACTH) fusion; not shown: T25 or T18 fragment of Bordetella pertussis adenylate cyclase, N-terminal or C-terminal (each tested), kept) MSFSPVAPSISAPTPRRSRWDSIGNAVAWPLAMLLMAHRFFVLAINGAVTDDFTTVYSALRRFVEGIPVYNEVYHFVDPHYLYNPGATLLLAPLGYITHFTLARWMFIAVNLLAIVLAFGLLTRLSGWALRSMVWPIAIALAMLTETVQNTLIFSNINGILLLMLAIFLWCVVHKKSWLGGLVIGLAILIKPMFLPLLFLPLVKKQWGSLILGILTPVIFNAVAWFLVPGASEYVTRTMPYLGETRDFANSSLPGLAIYFGMPTWMEITWFLIFGAMVGLAVLALLRFRNTEPYFWAATTTGVLLTGVFFLSSLGQMYYSMMIFPMIFTLLGSRSVFHNWVAWVAAYFFLSPDTFTSQRLPDVARWMEFFSATVGWGLLIVVTFVSALIWFIGDIRAKGTPSSPITTDPTHDHLERTA | – | – | – | no binding | no binding | binds | no binding |
